{"sequences": {"note": "Chains of the proteins cited; added tags and fusions are not shown. Lines headed by an entry give the natural chain unless they say otherwise; changes in a name come on top. Residues count along the entry.", "UniProt A6ND36": "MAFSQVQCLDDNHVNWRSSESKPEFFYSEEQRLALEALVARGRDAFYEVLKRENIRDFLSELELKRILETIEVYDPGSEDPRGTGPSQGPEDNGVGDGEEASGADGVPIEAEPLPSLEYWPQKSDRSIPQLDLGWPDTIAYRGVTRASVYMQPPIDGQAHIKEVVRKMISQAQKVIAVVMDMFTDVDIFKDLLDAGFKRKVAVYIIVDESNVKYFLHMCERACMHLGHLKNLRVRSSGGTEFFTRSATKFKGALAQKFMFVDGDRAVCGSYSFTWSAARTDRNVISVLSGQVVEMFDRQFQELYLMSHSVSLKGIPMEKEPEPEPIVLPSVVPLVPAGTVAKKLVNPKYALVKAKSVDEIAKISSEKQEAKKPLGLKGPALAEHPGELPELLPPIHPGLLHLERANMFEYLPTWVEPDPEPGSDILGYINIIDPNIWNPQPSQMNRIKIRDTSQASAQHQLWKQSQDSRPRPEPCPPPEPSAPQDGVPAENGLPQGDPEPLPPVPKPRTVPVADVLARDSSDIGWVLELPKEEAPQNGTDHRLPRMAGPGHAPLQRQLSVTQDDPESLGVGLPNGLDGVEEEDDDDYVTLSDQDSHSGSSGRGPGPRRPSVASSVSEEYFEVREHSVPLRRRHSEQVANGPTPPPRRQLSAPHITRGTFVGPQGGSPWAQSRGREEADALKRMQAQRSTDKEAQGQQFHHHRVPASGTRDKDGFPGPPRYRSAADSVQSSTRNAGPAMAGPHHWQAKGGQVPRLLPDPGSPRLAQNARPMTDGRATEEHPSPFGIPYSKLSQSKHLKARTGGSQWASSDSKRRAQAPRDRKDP", "UniProt O14745": "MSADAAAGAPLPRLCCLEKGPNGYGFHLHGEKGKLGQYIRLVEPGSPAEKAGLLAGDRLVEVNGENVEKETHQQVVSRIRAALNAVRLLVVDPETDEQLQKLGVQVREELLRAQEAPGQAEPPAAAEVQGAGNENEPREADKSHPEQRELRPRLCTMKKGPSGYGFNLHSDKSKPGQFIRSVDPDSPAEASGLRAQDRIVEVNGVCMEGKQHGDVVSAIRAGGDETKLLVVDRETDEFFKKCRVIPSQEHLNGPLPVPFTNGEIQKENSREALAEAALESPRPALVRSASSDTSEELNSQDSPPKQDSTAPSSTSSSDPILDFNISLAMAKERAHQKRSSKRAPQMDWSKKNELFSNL", "UniProt P57082": "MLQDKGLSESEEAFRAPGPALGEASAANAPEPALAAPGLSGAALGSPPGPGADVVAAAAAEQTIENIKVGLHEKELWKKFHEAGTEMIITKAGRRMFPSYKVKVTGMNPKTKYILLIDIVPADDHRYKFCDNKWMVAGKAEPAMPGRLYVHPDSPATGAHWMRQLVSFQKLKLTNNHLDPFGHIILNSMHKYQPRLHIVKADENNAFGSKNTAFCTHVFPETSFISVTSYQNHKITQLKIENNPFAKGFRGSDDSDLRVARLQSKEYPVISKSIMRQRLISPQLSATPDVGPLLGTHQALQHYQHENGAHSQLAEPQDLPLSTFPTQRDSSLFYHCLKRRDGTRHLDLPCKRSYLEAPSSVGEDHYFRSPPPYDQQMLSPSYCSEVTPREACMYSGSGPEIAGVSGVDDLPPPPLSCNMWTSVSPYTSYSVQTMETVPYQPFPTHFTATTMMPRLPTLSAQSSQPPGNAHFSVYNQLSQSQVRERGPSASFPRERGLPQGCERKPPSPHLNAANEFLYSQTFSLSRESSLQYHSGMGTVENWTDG", "UniProt Q8IZU9": "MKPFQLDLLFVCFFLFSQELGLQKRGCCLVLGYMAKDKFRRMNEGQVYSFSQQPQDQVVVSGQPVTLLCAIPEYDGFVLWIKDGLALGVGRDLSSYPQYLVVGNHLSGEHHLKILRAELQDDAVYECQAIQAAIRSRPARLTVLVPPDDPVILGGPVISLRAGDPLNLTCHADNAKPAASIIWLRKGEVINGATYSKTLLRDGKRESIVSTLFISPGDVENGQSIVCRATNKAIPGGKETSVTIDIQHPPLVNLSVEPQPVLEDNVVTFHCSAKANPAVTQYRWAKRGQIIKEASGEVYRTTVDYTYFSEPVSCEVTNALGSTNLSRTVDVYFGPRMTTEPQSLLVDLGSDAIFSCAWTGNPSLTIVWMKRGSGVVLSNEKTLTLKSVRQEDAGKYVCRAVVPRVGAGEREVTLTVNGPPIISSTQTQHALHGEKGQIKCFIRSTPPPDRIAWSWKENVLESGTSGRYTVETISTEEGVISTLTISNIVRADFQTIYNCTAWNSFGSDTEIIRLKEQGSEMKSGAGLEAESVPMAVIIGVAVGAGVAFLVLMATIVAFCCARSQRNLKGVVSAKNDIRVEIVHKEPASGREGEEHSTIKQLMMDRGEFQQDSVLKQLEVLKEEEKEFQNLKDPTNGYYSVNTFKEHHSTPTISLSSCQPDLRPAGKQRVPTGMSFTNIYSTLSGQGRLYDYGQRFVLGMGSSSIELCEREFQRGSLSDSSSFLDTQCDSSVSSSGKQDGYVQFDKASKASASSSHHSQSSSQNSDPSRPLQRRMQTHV", "UniProt P35240, residues 22-312": "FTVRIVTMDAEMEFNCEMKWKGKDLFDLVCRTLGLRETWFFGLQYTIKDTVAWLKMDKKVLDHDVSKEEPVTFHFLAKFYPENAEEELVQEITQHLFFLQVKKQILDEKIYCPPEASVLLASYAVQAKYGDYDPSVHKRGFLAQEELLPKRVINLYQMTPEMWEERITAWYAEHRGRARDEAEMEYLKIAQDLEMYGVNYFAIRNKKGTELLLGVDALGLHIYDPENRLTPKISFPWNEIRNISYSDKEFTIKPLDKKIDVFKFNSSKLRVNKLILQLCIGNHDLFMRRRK"}, "source": "paper PMC10249358", "about": "“Elucidation of Short Linear Motif-Based Interactions of the FERM Domains of Ezrin, Radixin, Moesin, and Merlin” (Biochemistry, 2023)", "binders": {"B1": {"name": "FAM83G(111–126) phage peptide, N-terminal truncation (AEPLP deletion) (peptide, UniProt A6ND36 116-126)", "peptide": "SLEYWPQKSDR"}, "B2": {"name": "full-length RRBP1 (protein, UniProt Q9P2E9 1-1410)", "chain": "MDIYDTQTLGVVVFGGFMVVSAIGIFLVSTFSMKETSYEEALANQRKEMAKTHHQKVEKKKKEKTVEKKGKTKKKEEKPNGKIPDHDPAPNVTVLLREPVRAPAVAVAPTPVQPPIIVAPVATVPAMPQEKLASSPKDKKKKEKKVAKVEPAVSSVVNSIQVLTSKAAILETAPKEVPMVVVPPVGAKGNTPATGTTQGKKAEGTQNQSKKAEGAPNQGRKAEGTPNQGKKTEGTPNQGKKAEGTPNQGKKAEGTPNQGKKAEGAQNQGKKVDTTPNQGKKVEGAPTQGRKAEGAQNQAKKVEGAQNQGKKAEGAQNQGKKGEGAQNQGKKAEGAQNQGKKAEGAQNQGKKAEGAQNQGKKAEGAQNQGKKAEGAQNQGKKAEGAQNQGKKVEGAQNQGKKAEGAQNQGKKAEGAQNQGKKAEGAQNQGKKAEGAQNQGKKAEGAQNQGKKAEGAQNQGKKAEGAQNQGKKVEGAQNQGKKAEGAQNQGKKAEGAQNQGKKAEGAQNQGQKGEGAQNQGKKTEGAQGKKAERSPNQGKKGEGAPIQGKKADSVANQGTKVEGITNQGKKAEGSPSEGKKAEGSPNQGKKADAAANQGKKTESASVQGRNTDVAQSPEAPKQEAPAKKKSGSKKKGEPGPPDADGPLYLPYKTLVSTVGSMVFNEGEAQRLIEILSEKAGIIQDTWHKATQKGDPVAILKRQLEEKEKLLATEQEDAAVAKSKLRELNKEMAAEKAKAAAGEAKVKKQLVAREQEITAVQARMQASYREHVKEVQQLQGKIRTLQEQLENGPNTQLARLQQENSILRDALNQATSQVESKQNAELAKLRQELSKVSKELVEKSEAVRQDEQQRKALEAKAAAFEKQVLQLQASHRESEEALQKRLDEVSRELCHTQSSHASLRADAEKAQEQQQQMAELHSKLQSSEAEVRSKCEELSGLHGQLQEARAENSQLTERIRSIEALLEAGQARDAQDVQASQAEADQQQTRLKELESQVSGLEKEAIELREAVEQQKVKNNDLREKNWKAMEALATAEQACKEKLLSLTQAKEESEKQLCLIEAQTMEALLALLPELSVLAQQNYTEWLQDLKEKGPTLLKHPPAPAEPSSDLASKLREAEETQSTLQAECDQYRSILAETEGMLRDLQKSVEEEEQVWRAKVGAAEEELQKSRVTVKHLEEIVEKLKGELESSDQVREHTSHLEAELEKHMAAASAECQNYAKEVAGLRQLLLESQSQLDAAKSEAQKQSDELALVRQQLSEMKSHVEDGDIAGAPASSPEAPPAEQDPVQLKTQLEWTEAILEDEQTQRQKLTAEFEEAQTSACRLQEELEKLRTAGPLESSETEEASQLKERLEKEKKLTSDLGRAATRLQELLKTTQEQLAREKDTVKKLQEQLEKAEDGSSSKEGTSV"}, "B3": {"name": "FAM83G(111–126) phage peptide, C-terminal truncation (KSDR deletion) (peptide, UniProt A6ND36 111-122)", "peptide": "AEPLPSLEYWPQ"}, "B4": {"name": "NOP53(192–207) phage peptide, C-terminal truncation (deletion of PLDRPLV) (peptide)", "peptide": "FYDLWASDN"}, "B5": {"name": "NOP53(192–207) peptide displayed on M13 phage (peptide)", "peptide": "FYDLWASDNPLDRPLV"}, "B6": {"name": "FAM83G(111–126) peptide displayed on M13 phage (peptide, UniProt A6ND36 111-126)", "peptide": "AEPLPSLEYWPQKSDR"}, "B7": {"name": "EBP50(343–358) peptide, unlabeled (peptide, UniProt O14745 343-358)", "peptide": "APQMDWSKKNELFSNL"}, "B8": {"name": "TBX4(428–443) peptide, unlabeled (peptide, UniProt P57082 428-443)", "peptide": "SYSVQTMETVPYQPFP"}, "B9": {"name": "ZNF622(341–356) peptide, unlabeled (peptide, UniProt Q969S3 341-356)", "peptide": "LEFADFYDFRSSYPDH"}, "B10": {"name": "KIRREL3(637–652) peptide, unlabeled (peptide, UniProt Q8IZU9 637-652)", "peptide": "YYSVNTFKEHHSTPTI"}, "B11": {"name": "KIRREL3(634–652) peptide, unlabeled, N-terminally extended (peptide, UniProt Q8IZU9 634-652)", "peptide": "TNGYYSVNTFKEHHSTPTI"}, "B12": {"name": "full-length ZNF622 (protein, UniProt Q969S3 1-477)", "chain": "MATYTCITCRVAFRDADMQRAHYKTDWHRYNLRRKVASMAPVTAEGFQERVRAQRAVAEEESKGSATYCTVCSKKFASFNAYENHLKSRRHVELEKKAVQAVNRKVEMMNEKNLEKGLGVDSVDKDAMNAAIQQAIKAQPSMSPKKAPPAPAKEARNVVAVGTGGRGTHDRDPSEKPPRLQWFEQQAKKLAKQQEEDSEEEEEDLDGDDWEDIDSDEELECEDTEAMDDVVEQDAEEEEAEEGPPLGAIPITDCLFCSHHSSSLMKNVAHMTKDHSFFIPDIEYLSDIKGLIKYLGEKVGVGKICLWCNEKGKSFYSTEAVQAHMNDKSHCKLFTDGDAALEFADFYDFRSSYPDHKEGEDPNKAEELPSEKNLEYDDETMELILPSGARVGHRSLMRYYKQRFGLSRAVAVAKNRKAVGRVLQQYRALGWTGSTGAALMRERDMQYVQRMKSKWMLKTGMKNNATKQMHFRVQVRF"}}, "key": {"[1]": {"molecular_target": "GST-tagged merlin FERM domain (human) (UniProt P35240)", "test": "ELISA; clonal phage ELISA: GST-tagged merlin FERM immobilised, phage displaying one peptide added; ratio of A450 on target to GST background, normalized to the WT peptide; only the target purified"}, "[2]": {"molecular_target": "GST-tagged moesin FERM domain (UniProt P26038)", "test": "pull-down; GST-tagged moesin or merlin FERM domain mixed with lysate of transfected HEK293 cells (0.5 mg protein) and GSH magnetic beads, GFP-Trap or anti-FLAG M2 beads, overnight 4 °C; 50 mM Tris-HCl pH 7.4, 150 mM NaCl, 0.5% NP-40; immunoblot; only the target purified"}, "[3]": {"molecular_target": "GST-tagged merlin FERM domain (human) (UniProt P35240)", "test": "pull-down; GST-tagged moesin or merlin FERM domain mixed with lysate of transfected HEK293 cells (0.5 mg protein) and GSH magnetic beads, GFP-Trap or anti-FLAG M2 beads, overnight 4 °C; 50 mM Tris-HCl pH 7.4, 150 mM NaCl, 0.5% NP-40; immunoblot; only the target purified"}, "moesin FERM domain [4]": {"molecular_target": "moesin FERM domain (UniProt P26038)", "test": "fluorescence polarisation; direct binding of FITC-labeled probe peptide titrated with moesin FERM in the presence of a saturating concentration of unlabeled peptide (80–150 μM); FP buffer; both purified"}, "moesin FERM domain [5]": {"molecular_target": "moesin FERM domain (UniProt P26038)", "test": "fluorescence polarisation; competition: precomplex of FERM domain (2 x KD) and FITC-KIRREL3(637–652) probe, titrated with unlabeled peptide; constants printed as KD′; FP buffer; both purified"}}, "note": "Results are given in words; binding and its absence hold for the method and conditions named. For some assays here: In cells and extracts the contact can be indirect. Some binding calls cover weakened binding; strength is not graded here.", "data": [{"binder": "B1", "values": [{"measurement": "binding", "setting": "[1]", "value": "binds"}]}, {"binder": "B2", "values": [{"measurement": "binding", "setting": "[2]", "value": "no binding"}, {"measurement": "binding", "setting": "[3]", "value": "binds"}]}, {"binder": "B3", "values": [{"measurement": "binding", "setting": "[1]", "value": "binds"}]}, {"binder": "B4", "values": [{"measurement": "binding", "setting": "[1]", "value": "no binding"}]}, {"binder": "B5", "values": [{"measurement": "binding", "setting": "[1]", "value": "binds"}]}, {"binder": "B6", "values": [{"measurement": "binding", "setting": "[1]", "value": "binds"}]}, {"binder": "B7", "values": [{"measurement": "binding", "setting": "moesin FERM domain [4]", "value": "binds"}]}, {"binder": "B8", "values": [{"measurement": "binding", "setting": "moesin FERM domain [4]", "value": "binds"}]}, {"binder": "B9", "values": [{"measurement": "binding", "setting": "moesin FERM domain [4]", "value": "binds"}]}, {"binder": "B10", "values": [{"measurement": "binding", "setting": "moesin FERM domain [5]", "value": "binds"}]}, {"binder": "B11", "values": [{"measurement": "binding", "setting": "moesin FERM domain [5]", "value": "binds"}]}, {"binder": "B12", "values": [{"measurement": "binding", "setting": "[2]", "value": "binds"}, {"measurement": "binding", "setting": "[3]", "value": "binds"}]}]}
